Values of other authors as cited in patent US11246852B2, “Fast-acting plant-based medicinal compounds and nutritional supplements” (RECEPTOR HOLDINGS, INC., priority 2016, dated 2022).
Some of these results come from one statement about several compounds together.

Details: FIG. 1B

| Compound | aqueous solubility |
| --- | --- |
| Nc1nc2c(ncn2COCCO)c(=O)[nH]1 [acyclovir] | more than 0.15 mg/ml |
| Heparin | more than 0.15 mg/ml |
| MT-II | more than 0.15 mg/ml |
| PTH: parathyroid hormone 1-34 | more than 0.15 mg/ml |
| calcitonin | more than 0.15 mg/ml |
